Where “and” joins values, the source holds several entries; their conditions need not be identical. Equal entries are not always repeated. Structures can show the parent of a compound that is named as a salt. ± gives the standard deviation of the averaged measurements. The list shows a part of the results. Single values are uncertain, as repeats are few or missing.
System: RAW 264.7
Assay: HMGB1-induced TNF-alpha production relative to HMGB1-stimulated control; higher = more TNF-alpha secretion (less inhibition)
Conditions: stimulus: HMGB1 5 ug/ml, 18 h
[1] = compound concentration: 1 ug/ml

Compound: CC[C@H]1CN2CCc3cc(OC)c(OC)cc3[C@@H]2C[C@@H]1C[C@H]1NCCc2cc(OC)c(OC)cc21 [Emetine dihydrochloride hydrate]
- HMGB1-induced TNF-alpha production (compound concentration: 3 uM): -1.73%

Compound: CC[C@H]1CN2CCc3cc(OC)c(OC)cc3[C@@H]2C[C@@H]1C[C@H]1NCCc2cc(OC)c(OC)cc21 [(+)-Emetine dihydrochloride hydrate]
- HMGB1-induced TNF-alpha production [1]: -2.05%

Compound: CC[C@H]1CN2CCc3cc(OC)c(OC)cc3[C@@H]2C[C@@H]1C[C@H]1NCCc2cc(OC)c(OC)cc21
- HMGB1-induced TNF-alpha production (compound concentration: 3 uM): 10.8 ± 14%

Compound: C[C@]12CC[C@H](O)CC1=CC[C@@H]1[C@@H]2CC[C@@]2(C)[C@H]1CC[C@]2(C)O
- HMGB1-induced TNF-alpha production (compound concentration: 3 uM): 102%

Compound: CCN(C(C)=O)c1cccc(-c2ccnc3c(C#N)cnn23)c1 [Zaleplon]
- HMGB1-induced TNF-alpha production (compound concentration: 3 uM): 77.6 ± 37%

Compound: NCCc1c[nH]c2ccc(O)cc12 [Serotonin hydrochloride]
- HMGB1-induced TNF-alpha production [1]: 55%
- HMGB1-induced TNF-alpha production (compound concentration: 3 uM): 92.7 ± 1.2%

Compound: Ic1ccccc1CNC1C2CCN(CC2)C1C(c1ccccc1)c1ccccc1 [L-703,606 oxalate salt hydrate]
- HMGB1-induced TNF-alpha production (compound concentration: 3 uM): 104%

Compound: COc1ccc2c(c1)[nH]c1c(C)nccc12 [Harmine]
- HMGB1-induced TNF-alpha production [1]: 56.9%
- HMGB1-induced TNF-alpha production (compound concentration: 3 uM): 61.5%

Compound: COc1ccc2c(c1)[nH]c1c(C)nccc12 [Harmine hydrochloride]
- HMGB1-induced TNF-alpha production (compound concentration: 3 uM): 89.7%

Compound: O=c1cccc2n1CC1CC2CN2CCCCC12 (stereo unspecified) [Thermopsine]
- HMGB1-induced TNF-alpha production [1]: 74.9%

Compound: CN1[C@@H](C[C@@H](O)c2ccccc2)CCC[C@H]1C[C@H](O)c1ccccc1 [Lobelanidine hydrochloride]
- HMGB1-induced TNF-alpha production (compound concentration: 3 uM): 116%

Compound: CCCN(CCC)CCc1ccc(O)c(O)c1 [Dipropyldopamine hydrobromide]
- HMGB1-induced TNF-alpha production (compound concentration: 3 uM): 85.9%

Compound: COc1ccc(C[C@H]2NC[C@H](O)[C@H]2OC(C)=O)cc1 [Anisomycin]
- HMGB1-induced TNF-alpha production [1]: -5.04%

Compound: NC(=O)C[S+]([O-])C(c1ccccc1)c1ccccc1 (stereo unspecified) [Modafinil]
- HMGB1-induced TNF-alpha production (compound concentration: 3 uM): 83.8 ± 15%

Compound: NC(=O)C[S+]([O-])C(c1ccccc1)c1ccccc1 (stereo unspecified)
- HMGB1-induced TNF-alpha production (compound concentration: 3 uM): 74.6%

Compound: C=C1[C@@H](C)[C@H]2[C@H](Cc3ccccc3)NC(=O)[C@]23OC(=O)/C=C/[C@H](O)CCC[C@@H](C)C/C=C/[C@H]3[C@@H]1O
- HMGB1-induced TNF-alpha production (compound concentration: 3 uM): 101%

Compound: NCCc1c[nH]c2ccccc12 [Tryptamine hydrochloride]
- HMGB1-induced TNF-alpha production (compound concentration: 3 uM): 106%

Compound: C[C@]12CC[C@H](O)C[C@H]1CC[C@@H]1[C@@H]2C[C@@H](O)[C@]2(C)[C@@H](C3=CC(=O)OC3)CC[C@]12O [Digoxigenin]
- HMGB1-induced TNF-alpha production [1]: 79.8%
- HMGB1-induced TNF-alpha production (compound concentration: 3 uM): 107%

Compound: Clc1ccc(N2C[C@H]3CC[C@@H](C2)N3)nn1
- HMGB1-induced TNF-alpha production (compound concentration: 3 uM): 101%

Compound: CC(=O)NC1CCSC1=O (racemic) [N-Acetyl-DL-homocysteine Thiolactone]
- HMGB1-induced TNF-alpha production (compound concentration: 3 uM): 73.9%

Compound: CC(Cc1ccccc1)NCCC(c1ccccc1)c1ccccc1 (stereo unspecified) [Prenylamine lactate]
- HMGB1-induced TNF-alpha production (compound concentration: 3 uM): 33.1%

Compound: CN1CCN(C(=O)OC2c3nccnc3C(=O)N2c2ccc(Cl)cn2)CC1 (stereo unspecified) [Zopiclone]
- HMGB1-induced TNF-alpha production (compound concentration: 3 uM): 125%

Compound: CN1CCN(C(=O)OC2c3nccnc3C(=O)N2c2ccc(Cl)cn2)CC1 (stereo unspecified)
- HMGB1-induced TNF-alpha production (compound concentration: 3 uM): 74.7%

Compound: Clc1ccc(C(OCCN2CCCCC2)c2ccccc2)cc1 (stereo unspecified)
- HMGB1-induced TNF-alpha production (compound concentration: 3 uM): 83.6%

Compound: Clc1ccc(C(OCCN2CCCCC2)c2ccccc2)cc1 (stereo unspecified) [Cloperastine hydrochloride]
- HMGB1-induced TNF-alpha production (compound concentration: 3 uM): 103%

Compound: C[C@@H](CO)NC(=O)[C@@H]1C=C2c3cccc4[nH]cc(c34)C[C@H]2N(C)C1 [Ergonovine]
- HMGB1-induced TNF-alpha production [1]: 72.8%

Compound: C[C@@H](CO)NC(=O)[C@@H]1C=C2c3cccc4[nH]cc(c34)C[C@H]2N(C)C1
- HMGB1-induced TNF-alpha production (compound concentration: 3 uM): 85.7%

Compound: Cc1c(N)nc([C@H](CC(N)=O)NC[C@H](N)C(N)=O)nc1C(=O)N[C@H](C(=O)N[C@H](C)[C@@H](O)[C@H](C)C(=O)N[C@H](C(=O)NCCc1nc(-c2nc(C(=O)NCCC[S+](C)C)cs2)cs1)[C@@H](C)O)[C@@H](OC1OC(CO)C(O)C(O)C1OC1OC(CO)C(O)C(OC(N)=O)C1O)c1cnc[nH]1 (stereo partly specified) [Bleomycin]
- HMGB1-induced TNF-alpha production (compound concentration: 3 uM): 136%

Compound: COc1cc2c(cc1OC)C1CC(=O)C(CC(C)C)CN1CC2 (stereo unspecified) [Tetrabenazine]
- HMGB1-induced TNF-alpha production (compound concentration: 3 uM): 118%

Compound: CCCCC/C=C\C/C=C\C/C=C\C/C=C\CCCC(=O)Nc1ccc(O)cc1
- HMGB1-induced TNF-alpha production (compound concentration: 3 uM): 126%

Compound: CCNC(=O)[C@H]1O[C@@H](n2cnc3c(N)ncnc32)[C@H](O)[C@@H]1O [5'-N-Ethylcarboxamidoadenosine]
- HMGB1-induced TNF-alpha production (compound concentration: 3 uM): 104%

Compound: O=c1cccc2n1CC1CC2CN(CCO)C1 (stereo unspecified)
- HMGB1-induced TNF-alpha production [1]: 68.8% and 80%

Compound: Cc1cccc(C)c1NC1=NCCCS1 [Xylazine hydrochloride]
- HMGB1-induced TNF-alpha production (compound concentration: 3 uM): 110%

Compound: Cc1cccc(C)c1NC1=NCCCS1
- HMGB1-induced TNF-alpha production (compound concentration: 3 uM): 59%

Compound: Cc1cccc(C)c1NC1=NCCCS1 [Xylazine]
- HMGB1-induced TNF-alpha production (compound concentration: 3 uM): 100 ± 6.8%

Compound: O=C1CN=C(c2ccccc2)c2cc([N+](=O)[O-])ccc2N1 [Nitrazepam]
- HMGB1-induced TNF-alpha production (compound concentration: 3 uM): 91.3%

Compound: Cc1ccc(S(=O)(=O)N[C@@H](CCCCN)C(=O)CCl)cc1 [Na-p-Tosyl-L-lysine chloromethyl ketone hydrochloride]
- HMGB1-induced TNF-alpha production (compound concentration: 3 uM): 105%

Compound: CCCN1CCC[C@@H](c2cccc(O)c2)C1 [S(-)-3PPP hydrochloride]
- HMGB1-induced TNF-alpha production (compound concentration: 3 uM): 111%

Compound: CN1C(=O)COc2c(C(=O)NC3CN4CCC3CC4)cc(Cl)cc21 (stereo unspecified) [Azasetron]
- HMGB1-induced TNF-alpha production (compound concentration: 3 uM): 103%

Compound: CC1(C)S[C@@H]2[C@H](N)C(=O)N2[C@H]1C(=O)O [(+)-6-Aminopenicillanic acid]
- HMGB1-induced TNF-alpha production [1]: 80.9%

Compound: CC(=O)OCC1=C(C(=O)O)N2C(=O)[C@@H](NC(=O)CCC[C@@H](N)C(=O)O)[C@H]2SC1
- HMGB1-induced TNF-alpha production (compound concentration: 3 uM): 96.3%

Compound: NC(=O)CN1CCCC1=O
- HMGB1-induced TNF-alpha production (compound concentration: 3 uM): 83%

Compound: NC(=O)CN1CCCC1=O [Piracetam]
- HMGB1-induced TNF-alpha production (compound concentration: 3 uM): 84.9 ± 11%

Compound: COc1cc2c(cc1OC)C(C)NCC2 (stereo unspecified)
- HMGB1-induced TNF-alpha production (compound concentration: 3 uM): 71.5%

Compound: NCc1cc(O)no1 [Muscimol hydrobromide]
- HMGB1-induced TNF-alpha production (compound concentration: 3 uM): 76%

Compound: Oc1ccc(Cl)cc1
- HMGB1-induced TNF-alpha production (compound concentration: 3 uM): 92.6%

Compound: CN1CC[C@@]2(C)c3cc(OC(=O)Nc4ccccc4)ccc3N(C)[C@@H]12 [Phenserine]
- HMGB1-induced TNF-alpha production (compound concentration: 3 uM): 74.2%

Compound: N#CCCN [3-Aminopropionitrile fumarate]
- HMGB1-induced TNF-alpha production (compound concentration: 3 uM): 94.6%

Compound: CC(C)c1c(CN(C)C(C)Cc2ccccc2)n(C)n(-c2ccccc2)c1=O (stereo unspecified)
- HMGB1-induced TNF-alpha production (compound concentration: 3 uM): 72.8%

Compound: CC(C)c1c(CN(C)C(C)Cc2ccccc2)n(C)n(-c2ccccc2)c1=O (stereo unspecified) [Famprofazone]
- HMGB1-induced TNF-alpha production (compound concentration: 3 uM): 82.4%

Compound: C=C(C)[C@@H]1[C@H]2OC(=O)[C@@H]1[C@]1(O)C[C@H]3O[C@]34C(=O)O[C@H]2[C@]14C
- HMGB1-induced TNF-alpha production (compound concentration: 3 uM): 108%

Compound: C=C(C)[C@@H]1[C@H]2OC(=O)[C@@H]1[C@]1(O)C[C@H]3O[C@]34C(=O)O[C@H]2[C@]14C [Picrotoxinin]
- HMGB1-induced TNF-alpha production [1]: 72.9%
- HMGB1-induced TNF-alpha production (compound concentration: 3 uM): 105%

Compound: C=CCN1C[C@H](C(=O)N(CCCN(C)C)C(=O)NCC)C[C@@H]2c3cccc4[nH]cc(c34)C[C@H]21 [Cabergoline]
- HMGB1-induced TNF-alpha production (compound concentration: 3 uM): 90.4%

Compound: Oc1ccc2c3c1O[C@H]1c4oc5ccccc5c4C[C@@]4(O)[C@@H](C2)N(CC2CC2)CC[C@]314 [Naltriben methanesulfonate]
- HMGB1-induced TNF-alpha production (compound concentration: 3 uM): 107%

Compound: Oc1ccc2c3c1O[C@H]1c4oc5ccccc5c4C[C@@]4(O)[C@@H](C2)N(CC2CC2)CC[C@]314 [Naltriben methanesulfonate hydrate]
- HMGB1-induced TNF-alpha production (compound concentration: 3 uM): 105%

Compound: O=P1(NCCCl)OCCCN1CCCl (stereo unspecified) [Ifosfamide]
- HMGB1-induced TNF-alpha production (compound concentration: 3 uM): 99.6 ± 10%

Compound: O=P1(NCCCl)OCCCN1CCCl (stereo unspecified)
- HMGB1-induced TNF-alpha production (compound concentration: 3 uM): 88.6 ± 4.8%

Compound: C=CCc1ccccc1OCC(O)CNC1(C)CCC(C(C)(C)NC(=O)CBr)CC1 (stereo unspecified) [Bromoacetyl alprenolol menthane]
- HMGB1-induced TNF-alpha production (compound concentration: 3 uM): 92.2%

Compound: CC(=O)OCC(=O)[C@H]1CC[C@H]2[C@@H]3CC[C@H]4C[C@H](O)CC[C@]4(C)[C@H]3C(=O)C[C@]12C [Alfadolone acetate]
- HMGB1-induced TNF-alpha production (compound concentration: 3 uM): 78.3%

Compound: Cc1c2ccncc2c(C)c2c1[nH]c1ccccc12 [Ellipticine]
- HMGB1-induced TNF-alpha production (compound concentration: 3 uM): 41.9%

Compound: CC(C)NP(=O)(NC(C)C)OP(=O)(NC(C)C)NC(C)C [Tetraisopropyl pyrophosphoramide]
- HMGB1-induced TNF-alpha production (compound concentration: 3 uM): 95.4%

Compound: CC(=O)NBr [N-Bromoacetamide]
- HMGB1-induced TNF-alpha production (compound concentration: 3 uM): 83.9%
